PubChem BioAssay AID1671195 – Yale University | 2021

- Test: 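Genes whose knockdown alters LDL uptake in liver cancer cells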 (primary screen)
- Cell system: human Huh7 hepatoma cells
- Reagent: siRNA pool against human genes, 18 nM
- Time to read-out: about 2 to 2.5 days of knockdown, then 8 h LDL uptake
- Conditions: DiI-labelled LDL at 30 µg/ml for 8 h, in lipoprotein-deficient serum medium
- Measured: 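Per-cell DiI-LDL intensity by automated imaging; well means scaled to the plate median and given as a robust z-score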
- Reading the numbers: robust z-score: higher = more LDL uptake after knockdown
- Hit rule: 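a gene counts as active if at least two replicate z-scores exceed ±2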
In all, the deposit lists about 22,000 reagents; this is an unselected part. About 1,510 of all reagents (6.9%) were called active. 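Active includes knockdowns raising or lowering LDL uptake; positive z-scores mean more uptake, negative mean less.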 Unmarked entries are inactive. The numbers tell different reagents against one gene apart. Reagent sequences are not shown.

target gene	pool no.	robust z-score, replicate 1	robust z-score, replicate 2	robust z-score, replicate 3
TMEM67 (transmembrane protein 67)	1	1.76	2.29	1.46
PDE4DIPP3 (PDE4DIP pseudogene 3)	1	0.389	0.525	0.826
DTD2 (D-aminoacyl-tRNA deacylase 2)	1	0.318	0.935	1.13
DNAJC5G (DnaJ heat shock protein family (Hsp40) member C5 gamma)	1	0.246	-0.0773	-0.0679
SIPA1L3 (signal induced proliferation associated 1 like 3)	1	-0.0938	0.476	0.427
LINC00518 (long independently transcribed non-coding RNA 518)	1	-0.415	-0.123	-0.118
CSPP1 (centrosome and spindle pole associated protein 1)	1	-1.2	-1.17	-1.05
NDUFA1 (NADH:ubiquinone oxidoreductase subunit A1)	1	2.36	1.57	1.51
GPR20 (G protein-coupled receptor 20)	1	0.658	0.601	0.822
TANGO2 (transport and golgi organization 2 homolog)	1	0.245	-0.334	-0.642
SOX9-AS1 (SOX9 antisense RNA 1)	1	0.334	0.358	0.502
SH3BP5 (SH3 domain binding protein 5)	1	-1.26	-0.381	-1.75
UNC119 (unc-119 lipid binding chaperone)	1	-0.117	-0.176	0.0918
SERTAD4BP (SERTA domain containing 4B, pseudogene)	1	-0.0903	-1.07	-1.51
CLDND2 (claudin domain containing 2)	1	0.00238	0.204	0.317
PPP2R5E (protein phosphatase 2 regulatory subunit B'epsilon)	1	-2.89 (active)	-3.15	-2.85
HES5 (hes family bHLH transcription factor 5)	1	0.0175	0.103	-0.417
GSC2 (goosecoid homeobox 2)	1	2.17 (active)	2.21	2.63
PEX12 (peroxisomal biogenesis factor 12)	1	-1.54	-1.09	-1.15
TMTC1 (transmembrane O-mannosyltransferase targeting cadherins 1)	1	0.883	-1.42	-1.73
TMEM18 (transmembrane protein 18)	1	0.158	0.276	-0.473
NEFH (neurofilament heavy chain)	1	0.424	0.824	-1.15
CAPN1 (calpain 1)	1	-0.841	-0.0674	-0.064
RASAL3 (RAS protein activator like 3)	1	0.964	1.23	1.01
BPESC1 (blepharophimosis, epicanthus inversus and ptosis candidate 1)	1	-1.23	-1.15	-1.48
SLC26A8	1	-0.6	-1.01	-0.176
NPM3 (nucleophosmin/nucleoplasmin 3)	1	-1.55	-1.7	-1.73
P4HA1 (prolyl 4-hydroxylase subunit alpha 1)	1	1.21	1.26	0.399
TBX3 (T-box transcription factor 3)	1	-0.749	1.21	0.207
CDK15 (cyclin dependent kinase 15)	1	0.116	0.0529	1.05
PHKG1 (phosphorylase kinase catalytic subunit gamma 1)	1	0.423	-0.572	-0.356
LIFR (LIF receptor subunit alpha)	1	0.614	0.448	0.523
TNFRSF1B (TNF receptor superfamily member 1B)	1	-1.29	-0.756	-0.909
PLXDC1 (plexin domain containing 1)	1	0.199	0.982	1.13
FAM47C (family with sequence similarity 47 member C)	1	-0.242	-0.106	0.482
PRRT3 (proline rich transmembrane protein 3)	1	-1.27	-1.47	-1.53
WFDC10A (WAP four-disulfide core domain 10A)	1	-1.31	-1.02	-1.03
CLRN3 (clarin 3)	1	-1.22	-1.05	-1.52
ZBTB33 (zinc finger and BTB domain containing 33)	1	-0.179	-0.196	0.188
SNRPD3 (small nuclear ribonucleoprotein D3 polypeptide)	1	3.86 (active)	4.49	2.29
LOC387883 (retired record)	1	-0.714	-0.562	-0.569
CFAP53 (cilia and flagella associated protein 53)	1	0.197	0.152	0.167
EPHB3 (EPH receptor B3)	1	-0.194	-0.0444	-0.365
PERP (p53 apoptosis effector related to PMP22)	1	2.22 (active)	2.35	1.72
SLC30A8	1	0.215	0.727	0.0408
KHDRBS1	1	-0.147	-0.718	-0.0662
CADPS (calcium dependent secretion activator)	1	-0.606	-0.558	-0.174
G3BP1 (G3BP stress granule assembly factor 1)	1	0.935	2.65	1.35
KCTD12 (potassium channel tetramerization domain containing 12)	1	2.27 (active)	2.06	2.1
MIA2 (MIA SH3 domain ER export factor 2)	1	0.393	0.371	-0.0993
MIA2 (MIA SH3 domain ER export factor 2)	2	-0.61	-0.627	-0.0456
ORC3 (origin recognition complex subunit 3)	1	4.65 (active)	3.04	1.38
MAGEB1 (MAGE family member B1)	1	-1.88	-1.61	-2.05
ZNF100 (zinc finger protein 100)	1	-0.59	-0.848	-0.701
LOC401476 (retired record)	1	0.621	-1.8	0.339
PABIR2 (PABIR family member 2)	1	-0.0592	-0.211	0.163
LINC00661 (long independently transcribed non-coding RNA 661)	1	-0.374	-1.24	-1.22
LOC442123 (retired record)	1	-1.52	-1.65	-0.666
FMO4 (flavin containing dimethylaniline monoxygenase 4)	1	-0.238	0.23	0.166
BCL11A (BCL11 transcription factor A)	1	0.0318	0.0933	1.25
CHST10 (carbohydrate sulfotransferase 10)	1	0.189	0.188	-0.294
CIMAP1A (ciliary microtubule associated protein 1A)	1	-0.571	0.234	-0.453
LCA5 (lebercilin LCA5)	1	-0.764	-0.993	-1.59
ASIC3 (acid sensing ion channel subunit 3)	1	-1.53	-1.57	-1.57
LOC440048 (retired record)	1	-1.06	-1.05	-1.37
TGM4 (transglutaminase 4)	1	-0.5	-0.107	0.225
CMTM3 (CKLF like MARVEL transmembrane domain containing 3)	1	-2.11	-0.363	-0.717
METAP1D (methionyl aminopeptidase type 1D, mitochondrial)	1	-1.17	-1.59	-1.01

Targets listed so far whose target name starts with L or l (8):
target gene	pool no.	robust z-score, replicate 1	robust z-score, replicate 2	robust z-score, replicate 3
LINC00518 (long independently transcribed non-coding RNA 518)	1	-0.415	-0.123	-0.118
LIFR (LIF receptor subunit alpha)	1	0.614	0.448	0.523
LOC387883 (retired record)	1	-0.714	-0.562	-0.569
LOC401476 (retired record)	1	0.621	-1.8	0.339
LINC00661 (long independently transcribed non-coding RNA 661)	1	-0.374	-1.24	-1.22
LOC442123 (retired record)	1	-1.52	-1.65	-0.666
LCA5 (lebercilin LCA5)	1	-0.764	-0.993	-1.59
LOC440048 (retired record)	1	-1.06	-1.05	-1.37
